The values that follow come from article PMC3870133.

Chains of the proteins cited; added tags and fusions are not shown. Lines headed by an entry give the natural chain unless they say otherwise; changes in a name come on top. Residues count along the entry.
UniProt P30561: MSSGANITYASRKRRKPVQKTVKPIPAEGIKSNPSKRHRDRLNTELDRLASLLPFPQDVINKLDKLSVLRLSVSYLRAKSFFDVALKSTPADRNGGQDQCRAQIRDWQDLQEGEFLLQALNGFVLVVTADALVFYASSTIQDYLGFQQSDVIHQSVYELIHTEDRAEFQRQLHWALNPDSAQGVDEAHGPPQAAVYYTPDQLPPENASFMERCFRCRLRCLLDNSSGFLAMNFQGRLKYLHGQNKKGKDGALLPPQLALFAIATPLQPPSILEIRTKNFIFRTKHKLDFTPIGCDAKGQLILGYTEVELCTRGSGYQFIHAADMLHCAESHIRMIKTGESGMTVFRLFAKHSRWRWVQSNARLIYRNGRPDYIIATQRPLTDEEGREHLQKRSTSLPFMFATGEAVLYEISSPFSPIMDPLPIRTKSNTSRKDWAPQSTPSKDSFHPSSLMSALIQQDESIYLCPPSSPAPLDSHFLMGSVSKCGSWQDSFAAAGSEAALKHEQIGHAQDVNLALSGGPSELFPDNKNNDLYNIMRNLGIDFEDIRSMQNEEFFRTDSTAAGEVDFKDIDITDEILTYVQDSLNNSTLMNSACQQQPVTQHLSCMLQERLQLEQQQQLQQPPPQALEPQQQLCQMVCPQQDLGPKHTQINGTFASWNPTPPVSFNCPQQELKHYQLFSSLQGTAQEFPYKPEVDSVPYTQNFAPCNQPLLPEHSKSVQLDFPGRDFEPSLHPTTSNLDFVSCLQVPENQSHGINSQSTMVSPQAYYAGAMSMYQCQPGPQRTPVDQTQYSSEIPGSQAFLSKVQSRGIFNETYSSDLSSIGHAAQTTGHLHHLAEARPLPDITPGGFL
UniProt Q04207: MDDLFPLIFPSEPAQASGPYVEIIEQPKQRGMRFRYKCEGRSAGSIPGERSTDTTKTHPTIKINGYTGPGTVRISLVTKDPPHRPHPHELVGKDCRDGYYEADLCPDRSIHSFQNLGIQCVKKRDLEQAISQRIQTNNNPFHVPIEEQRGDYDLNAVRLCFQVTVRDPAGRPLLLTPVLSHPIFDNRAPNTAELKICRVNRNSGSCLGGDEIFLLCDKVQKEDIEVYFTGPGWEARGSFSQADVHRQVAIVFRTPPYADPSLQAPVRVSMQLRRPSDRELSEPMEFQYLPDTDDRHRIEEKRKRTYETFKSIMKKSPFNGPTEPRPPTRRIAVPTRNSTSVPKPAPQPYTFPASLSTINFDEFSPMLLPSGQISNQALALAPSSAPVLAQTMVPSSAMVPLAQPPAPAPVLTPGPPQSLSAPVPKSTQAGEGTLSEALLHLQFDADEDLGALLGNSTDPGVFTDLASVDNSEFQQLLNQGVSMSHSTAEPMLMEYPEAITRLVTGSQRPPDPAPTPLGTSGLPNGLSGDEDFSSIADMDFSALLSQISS
UniProt Q9R0T7: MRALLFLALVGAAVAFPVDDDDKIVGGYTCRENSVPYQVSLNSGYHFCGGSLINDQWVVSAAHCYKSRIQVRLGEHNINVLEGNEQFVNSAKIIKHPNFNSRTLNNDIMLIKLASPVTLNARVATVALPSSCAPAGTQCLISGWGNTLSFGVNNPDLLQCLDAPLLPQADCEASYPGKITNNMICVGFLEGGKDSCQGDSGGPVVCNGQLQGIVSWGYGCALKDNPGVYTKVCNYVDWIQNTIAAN
UniProt Q7SIG6: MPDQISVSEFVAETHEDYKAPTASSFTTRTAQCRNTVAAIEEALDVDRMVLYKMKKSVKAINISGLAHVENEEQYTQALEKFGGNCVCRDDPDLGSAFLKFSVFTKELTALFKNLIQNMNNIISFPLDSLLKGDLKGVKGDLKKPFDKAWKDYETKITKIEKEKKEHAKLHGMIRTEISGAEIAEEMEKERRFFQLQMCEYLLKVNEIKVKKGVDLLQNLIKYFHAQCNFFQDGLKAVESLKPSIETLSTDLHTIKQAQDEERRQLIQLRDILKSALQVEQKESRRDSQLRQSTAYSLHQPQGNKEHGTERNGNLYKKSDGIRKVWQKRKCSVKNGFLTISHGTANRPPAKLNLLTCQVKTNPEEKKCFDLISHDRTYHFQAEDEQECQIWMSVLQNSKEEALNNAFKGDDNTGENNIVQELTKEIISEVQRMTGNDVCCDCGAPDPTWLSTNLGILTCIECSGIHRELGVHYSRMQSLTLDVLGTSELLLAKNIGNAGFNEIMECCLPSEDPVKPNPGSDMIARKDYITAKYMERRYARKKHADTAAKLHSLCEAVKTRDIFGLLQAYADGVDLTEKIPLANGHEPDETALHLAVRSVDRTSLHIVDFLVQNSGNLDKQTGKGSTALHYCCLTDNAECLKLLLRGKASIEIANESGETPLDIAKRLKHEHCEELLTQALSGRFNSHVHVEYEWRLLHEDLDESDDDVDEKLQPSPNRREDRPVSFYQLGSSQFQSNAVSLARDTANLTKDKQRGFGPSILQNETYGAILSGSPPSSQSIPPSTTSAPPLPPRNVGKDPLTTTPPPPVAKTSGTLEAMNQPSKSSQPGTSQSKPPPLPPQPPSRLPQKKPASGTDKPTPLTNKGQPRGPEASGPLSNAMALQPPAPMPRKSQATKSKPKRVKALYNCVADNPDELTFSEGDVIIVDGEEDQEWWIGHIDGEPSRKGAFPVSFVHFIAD
UniProt Q03265, residues 44-553: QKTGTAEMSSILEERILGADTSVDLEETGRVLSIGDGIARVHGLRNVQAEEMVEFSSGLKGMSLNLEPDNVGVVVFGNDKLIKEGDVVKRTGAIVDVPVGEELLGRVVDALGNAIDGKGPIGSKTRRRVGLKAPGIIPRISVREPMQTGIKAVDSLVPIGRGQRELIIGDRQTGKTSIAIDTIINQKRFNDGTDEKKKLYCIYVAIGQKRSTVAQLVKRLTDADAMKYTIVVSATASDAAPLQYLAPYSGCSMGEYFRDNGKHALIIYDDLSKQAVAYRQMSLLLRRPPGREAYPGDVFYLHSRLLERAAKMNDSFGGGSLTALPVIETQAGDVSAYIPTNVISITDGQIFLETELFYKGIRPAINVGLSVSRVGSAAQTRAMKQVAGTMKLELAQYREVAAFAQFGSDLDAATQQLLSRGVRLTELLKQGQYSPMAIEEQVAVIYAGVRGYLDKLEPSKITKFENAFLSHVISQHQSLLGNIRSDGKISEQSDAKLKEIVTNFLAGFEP

No constants are given. Whether binding was seen depends on the method and setting. Binding seen in cells or lysates may run through a third protein. These calls come from enrichment with a bait or labelling near it, and not all partners need be listed. No binding means not detected with the bait.

This assay concerns the target AHR-TAP (murine aryl-hydrocarbon receptor with C-terminal TAP tag) (murine) (UniProt P30561). As to the kind of experiment: affinity purification with mass spectrometry; AHR-TAP as bait from lysate of stable Hepa1c1c7 cells treated with DMSO (0.01%) or TCDD (10 nM; 30, 120 or 240 min); IgG Sepharose, AcTEV cleavage, calmodulin resin, 4°C; eluate separated on gel, bands digested and analysed by LC-MS/MS; GFP-TAP as negative control; 3 independent experiments.
For “RelA of the NFκB complex (from UniProt Q04207 1-549)”, the binding entry is recorded as “no binding”.
As for Tesp4 (from UniProt Q9R0T7), the entry is “binds”; as for “ArfGAP with SH3 domain, ankyrin repeat and PH domain 2 (Asap2) (from UniProt Q7SIG6 1-958)”, “binds”.
Then “ATP synthase F1 complex, alpha subunit (ATP5α1) (from UniProt Q03265 44-553)”, with “binds”.
